# Library screen at single concentrations

The chains behind the UniProt entries cited, without tags or fusion partners. Residues count along the entry.
UniProt P9WFT3, whole entry: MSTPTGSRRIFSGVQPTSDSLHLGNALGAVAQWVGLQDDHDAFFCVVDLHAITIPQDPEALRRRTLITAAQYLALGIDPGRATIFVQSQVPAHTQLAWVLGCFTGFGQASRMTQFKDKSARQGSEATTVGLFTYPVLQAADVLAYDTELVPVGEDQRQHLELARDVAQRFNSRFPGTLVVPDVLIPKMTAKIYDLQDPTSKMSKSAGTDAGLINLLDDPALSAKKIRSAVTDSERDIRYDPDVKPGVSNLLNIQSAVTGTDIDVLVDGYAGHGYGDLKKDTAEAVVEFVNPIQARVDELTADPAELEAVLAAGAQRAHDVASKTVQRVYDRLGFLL
UniProt I6X8D2, whole entry: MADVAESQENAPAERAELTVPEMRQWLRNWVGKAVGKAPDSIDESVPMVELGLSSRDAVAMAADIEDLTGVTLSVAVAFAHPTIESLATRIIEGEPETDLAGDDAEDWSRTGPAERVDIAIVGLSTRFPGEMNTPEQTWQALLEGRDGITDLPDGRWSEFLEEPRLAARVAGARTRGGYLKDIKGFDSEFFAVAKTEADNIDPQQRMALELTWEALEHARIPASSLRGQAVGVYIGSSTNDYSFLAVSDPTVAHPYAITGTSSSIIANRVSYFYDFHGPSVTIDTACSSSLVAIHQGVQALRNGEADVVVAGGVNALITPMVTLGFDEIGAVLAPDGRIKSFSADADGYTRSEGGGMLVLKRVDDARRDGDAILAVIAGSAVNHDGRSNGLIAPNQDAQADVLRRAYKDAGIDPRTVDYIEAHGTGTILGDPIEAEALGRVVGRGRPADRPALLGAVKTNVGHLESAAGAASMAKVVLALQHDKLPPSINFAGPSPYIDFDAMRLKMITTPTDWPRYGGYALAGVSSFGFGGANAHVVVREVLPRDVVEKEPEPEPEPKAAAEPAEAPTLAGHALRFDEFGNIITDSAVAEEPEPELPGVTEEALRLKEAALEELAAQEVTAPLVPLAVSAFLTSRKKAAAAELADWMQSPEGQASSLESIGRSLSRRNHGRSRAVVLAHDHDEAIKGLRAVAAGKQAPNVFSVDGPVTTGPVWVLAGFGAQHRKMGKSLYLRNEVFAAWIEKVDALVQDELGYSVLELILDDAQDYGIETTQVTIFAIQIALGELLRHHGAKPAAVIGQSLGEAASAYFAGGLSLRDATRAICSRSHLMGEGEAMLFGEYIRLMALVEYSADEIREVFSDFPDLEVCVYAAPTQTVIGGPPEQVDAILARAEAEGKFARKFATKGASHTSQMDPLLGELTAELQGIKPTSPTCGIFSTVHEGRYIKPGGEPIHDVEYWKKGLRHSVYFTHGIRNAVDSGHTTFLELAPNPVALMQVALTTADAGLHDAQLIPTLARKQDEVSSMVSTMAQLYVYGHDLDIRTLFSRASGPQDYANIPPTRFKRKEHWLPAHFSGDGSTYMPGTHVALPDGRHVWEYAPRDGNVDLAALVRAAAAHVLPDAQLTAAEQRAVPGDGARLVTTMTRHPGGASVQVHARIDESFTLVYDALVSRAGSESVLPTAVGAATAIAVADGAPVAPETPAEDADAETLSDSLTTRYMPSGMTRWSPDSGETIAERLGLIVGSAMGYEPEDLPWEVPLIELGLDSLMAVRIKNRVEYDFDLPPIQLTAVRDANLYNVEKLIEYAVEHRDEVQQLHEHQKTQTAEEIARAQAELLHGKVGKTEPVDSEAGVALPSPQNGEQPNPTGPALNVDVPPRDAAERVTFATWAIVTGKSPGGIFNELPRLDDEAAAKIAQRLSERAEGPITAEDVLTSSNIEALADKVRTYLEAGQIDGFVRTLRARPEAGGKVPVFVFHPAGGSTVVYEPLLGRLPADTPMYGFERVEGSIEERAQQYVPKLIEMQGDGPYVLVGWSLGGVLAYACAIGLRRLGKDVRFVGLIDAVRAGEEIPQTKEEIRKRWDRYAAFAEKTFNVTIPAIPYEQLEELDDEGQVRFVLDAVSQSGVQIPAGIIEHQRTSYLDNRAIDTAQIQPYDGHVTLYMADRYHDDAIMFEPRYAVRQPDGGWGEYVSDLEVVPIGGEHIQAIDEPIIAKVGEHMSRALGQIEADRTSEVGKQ
UniProt A4I591, 1-473: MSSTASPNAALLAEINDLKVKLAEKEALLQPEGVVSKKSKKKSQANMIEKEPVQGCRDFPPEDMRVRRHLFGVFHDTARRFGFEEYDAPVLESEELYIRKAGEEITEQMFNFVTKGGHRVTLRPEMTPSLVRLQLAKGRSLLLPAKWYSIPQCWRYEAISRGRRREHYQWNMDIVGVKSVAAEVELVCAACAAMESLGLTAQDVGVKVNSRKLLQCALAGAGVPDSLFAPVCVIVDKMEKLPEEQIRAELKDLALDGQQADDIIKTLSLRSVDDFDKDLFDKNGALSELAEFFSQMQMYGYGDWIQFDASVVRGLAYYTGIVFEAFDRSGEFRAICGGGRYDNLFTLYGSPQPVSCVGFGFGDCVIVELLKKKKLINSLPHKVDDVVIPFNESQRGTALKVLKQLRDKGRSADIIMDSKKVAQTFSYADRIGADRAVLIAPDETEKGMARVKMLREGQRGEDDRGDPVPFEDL
UniProt Q4DA54, 1-478: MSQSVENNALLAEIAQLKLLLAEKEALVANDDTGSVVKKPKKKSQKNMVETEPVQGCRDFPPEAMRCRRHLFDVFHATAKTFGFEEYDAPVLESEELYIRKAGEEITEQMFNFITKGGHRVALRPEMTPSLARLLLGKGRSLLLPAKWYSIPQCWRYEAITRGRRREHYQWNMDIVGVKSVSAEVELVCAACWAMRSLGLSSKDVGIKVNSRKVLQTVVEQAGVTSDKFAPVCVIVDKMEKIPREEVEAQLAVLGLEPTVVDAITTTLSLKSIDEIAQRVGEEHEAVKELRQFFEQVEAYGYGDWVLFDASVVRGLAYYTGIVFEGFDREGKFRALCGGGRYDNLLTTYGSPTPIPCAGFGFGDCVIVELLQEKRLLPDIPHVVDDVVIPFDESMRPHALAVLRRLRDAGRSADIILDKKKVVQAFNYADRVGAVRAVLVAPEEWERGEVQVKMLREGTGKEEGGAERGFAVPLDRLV

A: 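Tryptophan-tRNA ligase, Mycobacterium tuberculosis (UniProt P9WFT3). Enzyme assay of tryptophanyl-tRNA synthetase; the read-out is not stated. Compounds at 10 µM. Direction is not recorded; retested compounds ran higher, which suggests that high means inhibition. Of about 65,000 compounds tested this way, about 64 (0.098%) reached 50% or more in at least one test.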
B: 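Enzyme assay of the thioesterase domain of polyketide synthase 13; the read-out is not stated. Target: Polyketide synthase Pks13, Mycobacterium tuberculosis (UniProt I6X8D2). Compounds at 30 µM. The record gives no direction; the compounds picked for IC50 retests had high values, so higher reads as stronger inhibition. Size under these conditions: about 67,000 compounds, about 300 of them at 50% or above in at least one test.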
C: 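Enzyme assay of histidyl-tRNA synthetase; the read-out is not stated. Target: Histidine-tRNA ligase, Leishmania infantum (UniProt A4I591). Concentration: 30 µM. Direction is inferred from retests: higher values go with stronger inhibition. The assay is labelled LdHisRS but filed under L. infantum. Size under these conditions: about 69,000 compounds, about 410 of them at 50% or above in at least one test.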
D: 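Histidine-tRNA ligase, Trypanosoma cruzi CL Brener (UniProt Q4DA54). Enzyme assay of histidyl-tRNA synthetase; the read-out is not stated. Tested at 30 µM. Direction is inferred from retests: higher values go with stronger inhibition. About 69,000 compounds were tested under these conditions; 0.045% (about 31) showed 50% or more at least once.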

Values are the deposited “Percent Effect”, in %.
The controls that fix the scale are not given in the record; negative values are as filed.
Compounds were drawn at random from those tested, without regard to their results.

With CN(Cc1nnc(C2CC2)o1)C1CCN(CCc2cccs2)C1 (centres unmarked) the screen gave A: 2.155%; B: -11.69%; C: 9.677%; D: -3.061%. O=C(NCC(O)COc1ccc(F)cc1)C1(c2ccc(F)cc2)CC1 (centres unmarked) gave A: -0.6791%; B: 0.6427%; C: 10%; D: 7.792%. For CCCNC1(c2ccc(Cl)cc2)CCOCC1 the result was A: -4.61%; C: 16.44%; D: 2.703%. Result for Cc1cnn(CCNCC(=O)NCCOc2ccc(Cl)cc2)c1 was A: -2.062%; B: 9.016%; C: 7.895%; D: 5.202%. COc1ccc(C(C)N(C)Cc2nc3c(cnn3C)c(=O)[nH]2)cc1 (centres unmarked) gave A: 6.193%; B: -12.23%; C: 9.174%; D: 5.539%. For CN(C)C(=O)C1CN(Cc2ccccc2)CCN(S(C)(=O)=O)C1 (centres unmarked) the result was A: -0.2508%; B: -30.95%; C: 19.44%; D: 3.784%. With COc1c(C2SCC(=O)Nc3[nH]ncc32)cc2c(c1OC)OCO2 (centres unmarked) the screen gave A: -0.08333%; B: -3.288%; C: 8.602%; D: -1.554%.

For O=S(=O)(N1CCOCC1)N1CCCC1Cn1cccn1 (centres unmarked) the result was A: -5.176%; B: -2.483%; C: 8.966%; D: 7.605%. Result for COc1ccccc1NC(=O)Cn1c(=O)nc(N)c2cc(C)sc21 was A: 2.488%; B: -21%; C: 11.96%; D: -1.98%. O=C(c1ccn(-c2ccccc2)n1)N1CCCC(n2cccn2)C1 (centres unmarked) read A: -4.231%; B: -13.08%; C: 10.34%; D: 9.605%. c1nc(C2CCCCO2)ncc1CN1CCOCC1 (centres unmarked) read A: -3.981%; B: 8.712%; C: 12.77%; D: 13.91%. NC(=O)c1cc(C2CCCN(CCc3ccc4c(c3)CCO4)C2)n[nH]1 (centres unmarked) gave A: 3.826%; B: -5.94%; C: 15.66%; D: 2.488%. With CN1CCN(CC2CC2)C(=O)c2cnc(N3CCCC3)nc21 the screen gave A: 0.2534%; B: -16.83%; C: -1.351%; D: 3.396%. With CCOc1ccc(C2C3=C(O)OCC3=Nc3nc(SC)nc(N)c32)cc1 (centres unmarked) the screen gave A: 6.111%; B: -24.28%; C: 28.4%; D: 17.41%.

O=C1NC2(CCN(C(=O)CN3CCOCC3)CC2)Nc2ccc(Cl)cc21 read A: -2.211%; C: 13.04%; D: 7.576%. With CN(C)CCN(C)C(=O)Nc1cc(F)cc(N2CCCC2)c1 the screen gave A: 0.4914%; B: -18.27%; C: 18.31%; D: 4.972%. With COc1ccc(C(=O)NC2CC2)c(OC2CCN(C3CCC3)CC2)c1 the screen gave A: -6.548%; B: -27.28%; C: 5.208%; D: 10.06%. Result for Cc1ccc(C(=O)N2C[C@H]3CN(Cc4csc(C)n4)C[C@H]3C2)cn1 was A: -0.6478%; B: 7.735%; C: 11.7%; D: 6.03%. O=S(=O)(NCC1COc2ccccc2C1)N1CCOCC1 (centres unmarked) read A: -1.356%; B: 5.57%; C: 12.94%; D: 5.83%. For Cc1ccc(CN2CCC3(CC2)C(=O)N(CCO)CCN3C)o1 the result was A: -2.183%; B: -16.76%; C: 11.65%; D: -1.942%. Result for Cc1nc(C)n(CC2CCCN2CC(=O)Nc2cc(C)on2)n1 (centres unmarked) was A: 9.513%; B: -14.2%; C: 12.28%; D: 1.433%.

Result for NC(=O)c1ccc(N2CCCCC2)c(NC(=O)c2ccc(Br)cc2)c1 was A: 4.724%; B: -9.719%; C: 20.43%; D: 16.07%. For CN(C)[C@H]1CCCCN(C(=O)c2cccc(-c3cccc(F)c3)c2)C1 the result was A: -3.865%; B: -25.39%; C: 21.31%; D: 7.2%. CNc1ccc(CC2CCCN(Cc3c[nH]cn3)C2)nn1 (centres unmarked) read A: -0.8832%; B: 7.216%; C: 16.9%; D: 7.692%. With Cc1[nH]nc(CCC(=O)NCC2CCCN(C3CCCC3)C2)c1C (centres unmarked) the screen gave A: 3.024%; B: 0.7477%; C: 19.05%; D: 11.88%. For CCOc1ccc(C(=O)NC2CC2)cc1C the result was A: -1.525%; B: -7.024%; C: -2.222%; D: 1.818%. With O=C(NC1=NCCCN1c1ccc(Cl)cc1)c1cccc(Cl)c1 the screen gave A: -2.237%; B: 1.306%; C: -10.38%; D: -0.8368%. COc1ccc(CCC(=O)N2CCNCC2C(=O)N2CCCC2)cc1 (centres unmarked) gave A: -3.759%; B: -23.04%; C: 8.392%; D: 7.463%.

With Cc1cnn(CC2CCCN2CC(=O)Nc2nncs2)c1 (centres unmarked) the screen gave A: 1.564%; B: -5.768%; C: 11.57%; D: 15.31%. O=C1CCC2(CCN(Cc3ccoc3)CC2)N1OCc1ccccc1F read A: 2.197%; B: -8.369%; C: 6.612%; D: 0%. Result for Cc1nn(C)c(N2CCCN(C)CC2)c1CNC(=O)CC(C)(C)C was A: 0.1971%; B: -25.09%; C: 13.27%; D: 0.4425%. c1cnc2c(c1)CN(C1CCOC1)CCN2CC1CC1 (centres unmarked) read A: -3.108%; B: -33.53%; C: 7.965%; D: 4.301%. For O=C(c1ccncc1F)N1C[C@H]2CC[C@@H]1CN(Cc1cccnc1)C2 the result was A: 0.3018%; B: -2.095%; C: -1.075%; D: 2.618%.

3 of the entries, repeated:

| Compound | A | B | C | D |
|---|---|---|---|---|
| `CN(Cc1nnc(C2CC2)o1)C1CCN(CCc2cccs2)C1` (centres unmarked) | 2.155% | -11.69% | 9.677% | -3.061% |
| `O=S(=O)(N1CCOCC1)N1CCCC1Cn1cccn1` (centres unmarked) | -5.176% | -2.483% | 8.966% | 7.605% |
| `Cc1nc(C)n(CC2CCCN2CC(=O)Nc2cc(C)on2)n1` (centres unmarked) | 9.513% | -14.2% | 12.28% | 1.433% |

Source: ChEMBL document CHEMBL3988442, “University of Dundee, Small-Polar-MMV Screening Library” (2021).